No constants are given. Whether binding was seen depends on the method and setting. In cells and extracts the contact can be indirect. Some entries that bind do so weakly or less than the wild type.
Biological target: T1, Nedd4 family interacting protein 1 (Ndfip1) (rat (endogenous in hippocampal CA1 tissue)) (UniProt Q5U2S1)
T1 sequence: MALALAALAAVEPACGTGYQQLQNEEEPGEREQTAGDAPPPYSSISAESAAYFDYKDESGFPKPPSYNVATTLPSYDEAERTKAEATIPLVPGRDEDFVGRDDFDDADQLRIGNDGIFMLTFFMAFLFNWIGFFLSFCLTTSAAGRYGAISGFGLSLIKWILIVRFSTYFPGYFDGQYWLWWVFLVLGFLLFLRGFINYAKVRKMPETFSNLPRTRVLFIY
Experiment: co-IP; rat CA1 tissue lysate (0.5 mg, RIPA lysis buffer) of non-trained and water-maze-trained rats, immunoprecipitated with anti-Ndfip1 antibody at 4°C overnight, protein A magnetic beads, immunoblotted with anti-Nedd4 and anti-Ndfip1; association decreased in trained rats

Sequences of proteins named here, by UniProt entry; tags and fusion partners are left off.
UniProt Q62940: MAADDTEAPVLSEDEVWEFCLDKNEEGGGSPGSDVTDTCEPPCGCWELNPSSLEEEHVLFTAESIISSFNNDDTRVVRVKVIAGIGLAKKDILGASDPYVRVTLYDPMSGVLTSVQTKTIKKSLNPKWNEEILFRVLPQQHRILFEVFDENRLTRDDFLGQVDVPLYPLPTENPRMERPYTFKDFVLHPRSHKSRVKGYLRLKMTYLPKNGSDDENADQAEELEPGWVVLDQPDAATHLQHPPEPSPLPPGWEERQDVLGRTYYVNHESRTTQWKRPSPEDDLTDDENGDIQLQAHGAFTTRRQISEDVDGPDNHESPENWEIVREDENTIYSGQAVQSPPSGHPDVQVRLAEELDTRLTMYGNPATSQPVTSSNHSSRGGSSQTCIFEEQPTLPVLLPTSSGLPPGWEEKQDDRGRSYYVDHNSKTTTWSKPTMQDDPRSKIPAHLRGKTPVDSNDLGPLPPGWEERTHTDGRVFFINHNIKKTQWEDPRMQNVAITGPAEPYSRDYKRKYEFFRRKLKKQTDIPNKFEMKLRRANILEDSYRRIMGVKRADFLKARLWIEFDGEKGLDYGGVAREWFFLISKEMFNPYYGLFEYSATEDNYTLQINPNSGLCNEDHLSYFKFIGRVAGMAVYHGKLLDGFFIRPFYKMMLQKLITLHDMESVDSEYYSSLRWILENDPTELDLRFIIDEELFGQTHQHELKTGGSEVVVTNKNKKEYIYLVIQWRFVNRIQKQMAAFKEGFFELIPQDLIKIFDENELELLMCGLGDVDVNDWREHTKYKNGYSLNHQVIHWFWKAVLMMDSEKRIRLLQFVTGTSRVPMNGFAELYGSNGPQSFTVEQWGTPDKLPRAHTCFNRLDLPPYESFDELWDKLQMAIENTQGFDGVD

binding: binds
Substance: Nedd4 (neural-precursor-cell-expressed developmentally down-regulated 4) E3 ubiquitin ligase (from UniProt Q62940 1-887)

— article PMC10079018
